The supplement of paper PMC10331698
± gives the standard deviation of the averaged measurements. Small differences around the control level are noise.

Experiments:
Experiment in all cases: level (log10 ratio to DMSO vehicle control); higher = higher biomarker level / cell amount than vehicle control
[1] = compound: C=CC(F)(F)C(F)(F)C(F)(F)C(F)(F)C(F)(F)C(F)(F)C(F)(F)C(F)(F)C=C [1,8-Divinylperfluorooctane]; conditions: in DMSO
Method: (§1)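 BioMAP Diversity Plus panel of 12 human primary cell co-culture systems (3C, 4H, LPS, SAg, BT, BF4T, BE3C, CASM3C, HDF3CGF, KF3CT, MyoF, Mphg). Compounds were added 1 h before stimulation and left for 24 h (MyoF 48 h; BT 72 h for soluble read-outs or 6 d for IgG). Biomarkers were read by ELISA, cytotoxicity by SRB, PBMC viability and proliferation by Alamar Blue. Each well value was divided by the mean of 8 DMSO control wells on the same plate and log10 transformed; duplicate blinded samples were tested at 4 concentrations.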

[2] = compound: FC(F)(F)C(F)(F)C(F)(F)CC1CO1 [1H,1H-Heptafluorobutyl epoxide]; conditions: 2200 nM; in DMSO
Method: as §1

[3] = compound: C=CC(=O)OCC(F)(F)C(F)(F)C(F)(F)C(F)(F)C(F)(F)C(F)(F)C(F)(F)F [1H,1H-Perfluorooctyl acrylate]; conditions: 2200 nM; in DMSO
Method: as §1

[4] = compound: CO[Si](C)(CCC(F)(F)C(F)(F)C(F)(F)C(F)(F)C(F)(F)C(F)(F)F)OC [Dimethoxymethyl((perfluorohexyl)ethyl)silane]; conditions: in DMSO
Method: as §1

[5] = compound: NC(=O)C(F)(F)C(F)(F)C(F)(F)C(F)F; conditions: in DMSO
Method: as §1

[6] = compound: COC(=O)C(F)(F)C(F)(F)OC(F)(C(F)(F)F)C(F)(F)OC(F)=C(F)F [Methyl perfluoro(3-(1-ethenyloxypropan-2-yloxy)propanoate)]; conditions: in DMSO
Method: as §1

[7] = compound: O=S(=O)(OCC(F)(F)F)C(F)(F)C(F)(F)C(F)(F)C(F)(F)F [2,2,2-Trifluoroethyl perfluorobutanesulfonate]; conditions: 2200 nM; in DMSO
Method: as §1

[8] = compound: OCCCCC(F)(F)C(F)(F)C(F)(F)C(F)(F)F [4:4 Fluorotelomer alcohol]; conditions: 2200 nM; in DMSO
Method: as §1

[9] = compound: O=S(=O)(O)C(F)(F)C(F)(F)C(F)(F)C(F)(F)C(F)(F)C(F)(F)C(F)(F)C(F)(F)F [Potassium perfluorooctanesulfonate]; conditions: 2200 nM; in DMSO
Method: as §1

[10] = compound: NS(=O)(=O)C(F)(F)C(F)(F)C(F)(F)C(F)(F)C(F)(F)C(F)(F)C(F)(F)C(F)(F)F [Perfluorooctanesulfonamide]; conditions: in DMSO
Method: as §1

[11] = compound: O=S(=O)(O)C(F)(F)C(F)(F)C(F)(F)C(F)(F)C(F)(F)C(F)(F)C(F)(F)C(F)(F)F [Perfluorooctanesulfonic acid]; conditions: 2200 nM; in DMSO
Method: as §1

[12] = compound: O=C(O)C(F)(F)C(F)(F)C(F)F [4H-Perfluorobutanoic acid]; conditions: in DMSO
Method: as §1

[13] = compound: O=P(O)(O)CCC(F)(F)C(F)(F)C(F)(F)C(F)(F)C(F)(F)C(F)(F)F [2-(Perfluorohexyl)ethylphosphonic acid]; conditions: 2200 nM; in DMSO
Method: as §1

[14] = compound: C=C(C)C(=O)OCC(F)(F)C(F)(F)C(F)(F)C(F)(F)C(F)(F)C(F)(F)C(F)(F)F; conditions: in DMSO
Method: as §1

Heptafluorobutyl iodide = compound: FC(F)(F)C(F)(F)C(F)(F)CI [Heptafluorobutyl iodide]; conditions: 2200 nM; in DMSO
Method: as §1

[15] = compound: O=S(=O)(F)C(F)(F)C(F)(F)C(F)(F)C(F)(F)C(F)(F)C(F)(F)C(F)(F)C(F)(F)F [Perfluorooctanesulfonyl fluoride]; conditions: 2200 nM; in DMSO
Method: as §1

Pentafluoropropionamide = compound: NC(=O)C(F)(F)C(F)(F)F [Pentafluoropropionamide]; conditions: 2200 nM; in DMSO
Method: as §1

[16] = compound: OCC(F)(F)C(F)(F)C(F)(F)C(F)(F)C(F)(F)C(F)F [1H,1H,7H-Dodecafluoro-1-heptanol]; conditions: 2200 nM; in DMSO
Method: as §1

## CASM3C:M-CSF
[1]; 740 nM
  level (log10): 0.0155 ± 0.033
[1]; 2200 nM
  level (log10): -0.0265 ± 0.028
[2]
  level (log10): -0.003 ± 0.018
[3]
  level (log10): -0.0165 ± 0.00071
[4]; 740 nM
  level (log10): 0.0145 ± 0.044
[4]; 2200 nM
  level (log10): -0.012 ± 0.0099
[5]; 2200 nM
  level (log10): 0.012 ± 0.05
[5]; 6700 nM
  level (log10): -0.0485 ± 0.021
[5]; 20000 nM
  level (log10): -0.0535 ± 0.046
[5]; 60000 nM
  level (log10): 0.019 ± 0.082
[6]; 740 nM
  level (log10): 0.0065 ± 0.012
[6]; 2200 nM
  level (log10): -0.0115 ± 0.0021
[7]
  level (log10): 0.008 ± 0.044
[8]
  level (log10): 0.0505 ± 0.025
[9]
  level (log10): 0.0345 ± 0.079
[10]; 2200 nM
  level (log10): 0.037 ± 0.038
[10]; 6700 nM
  level (log10): 0.022
[10]; 20000 nM
  level (log10): 0.04 ± 0.0099
[11]
  level (log10): 0.015 ± 0.045
[12]; 2200 nM
  level (log10): 0.05 ± 0.023
[12]; 6700 nM
  level (log10): 0.004 ± 0.045
[12]; 20000 nM
  level (log10): -0.009 ± 0.016
[12]; 60000 nM
  level (log10): 0.059 ± 0.027
[13]
  level (log10): 0.002 ± 0.02
[14]; 740 nM
  level (log10): 0 ± 0.076
[14]; 2200 nM
  level (log10): -0.022 ± 0.0071
Heptafluorobutyl iodide
  level (log10): 0.0025 ± 0.049
[15]
  level (log10): 0.0095 ± 0.0064
Pentafluoropropionamide
  level (log10): 0.019 ± 0.028
[16]
  level (log10): 0.002 ± 0.03
